Test results: PMC12436004
No constants are given. Whether binding was seen depends on the method and setting. In cells and extracts the contact can be indirect. Some entries that bind do so weakly or less than the wild type. For part of these data: Tags and fused reporters may be left off the sequences shown.

Protein sequences, listed by entry. Tags and fused reporters are not part of them.
UniProt Q96P20: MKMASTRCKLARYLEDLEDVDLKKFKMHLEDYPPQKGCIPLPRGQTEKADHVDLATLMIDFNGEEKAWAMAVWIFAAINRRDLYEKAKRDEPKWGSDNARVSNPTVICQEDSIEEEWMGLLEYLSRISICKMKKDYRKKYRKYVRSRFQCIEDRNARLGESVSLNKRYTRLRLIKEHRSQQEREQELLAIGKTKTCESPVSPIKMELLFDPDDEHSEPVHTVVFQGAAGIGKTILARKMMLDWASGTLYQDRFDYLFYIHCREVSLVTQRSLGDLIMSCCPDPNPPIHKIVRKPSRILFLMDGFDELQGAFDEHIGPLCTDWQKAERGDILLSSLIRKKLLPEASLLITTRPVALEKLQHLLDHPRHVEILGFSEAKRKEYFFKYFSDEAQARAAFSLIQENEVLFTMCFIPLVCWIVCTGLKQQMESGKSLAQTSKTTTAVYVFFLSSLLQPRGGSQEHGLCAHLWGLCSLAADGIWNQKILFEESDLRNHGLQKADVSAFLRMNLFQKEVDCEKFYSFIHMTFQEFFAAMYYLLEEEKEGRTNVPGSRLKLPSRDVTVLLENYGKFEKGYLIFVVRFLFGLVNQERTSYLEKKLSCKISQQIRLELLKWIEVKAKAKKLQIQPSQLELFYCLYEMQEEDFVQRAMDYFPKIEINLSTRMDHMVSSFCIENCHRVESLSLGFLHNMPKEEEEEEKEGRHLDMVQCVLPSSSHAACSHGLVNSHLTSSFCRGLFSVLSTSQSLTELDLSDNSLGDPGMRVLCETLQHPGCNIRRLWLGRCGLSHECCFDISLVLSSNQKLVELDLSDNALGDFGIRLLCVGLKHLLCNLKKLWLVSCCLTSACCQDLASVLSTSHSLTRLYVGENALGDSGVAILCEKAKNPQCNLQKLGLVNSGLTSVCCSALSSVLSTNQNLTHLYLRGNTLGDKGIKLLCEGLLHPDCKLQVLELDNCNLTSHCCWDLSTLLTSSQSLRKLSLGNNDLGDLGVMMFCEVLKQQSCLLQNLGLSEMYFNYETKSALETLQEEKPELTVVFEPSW
UniProt D4A523: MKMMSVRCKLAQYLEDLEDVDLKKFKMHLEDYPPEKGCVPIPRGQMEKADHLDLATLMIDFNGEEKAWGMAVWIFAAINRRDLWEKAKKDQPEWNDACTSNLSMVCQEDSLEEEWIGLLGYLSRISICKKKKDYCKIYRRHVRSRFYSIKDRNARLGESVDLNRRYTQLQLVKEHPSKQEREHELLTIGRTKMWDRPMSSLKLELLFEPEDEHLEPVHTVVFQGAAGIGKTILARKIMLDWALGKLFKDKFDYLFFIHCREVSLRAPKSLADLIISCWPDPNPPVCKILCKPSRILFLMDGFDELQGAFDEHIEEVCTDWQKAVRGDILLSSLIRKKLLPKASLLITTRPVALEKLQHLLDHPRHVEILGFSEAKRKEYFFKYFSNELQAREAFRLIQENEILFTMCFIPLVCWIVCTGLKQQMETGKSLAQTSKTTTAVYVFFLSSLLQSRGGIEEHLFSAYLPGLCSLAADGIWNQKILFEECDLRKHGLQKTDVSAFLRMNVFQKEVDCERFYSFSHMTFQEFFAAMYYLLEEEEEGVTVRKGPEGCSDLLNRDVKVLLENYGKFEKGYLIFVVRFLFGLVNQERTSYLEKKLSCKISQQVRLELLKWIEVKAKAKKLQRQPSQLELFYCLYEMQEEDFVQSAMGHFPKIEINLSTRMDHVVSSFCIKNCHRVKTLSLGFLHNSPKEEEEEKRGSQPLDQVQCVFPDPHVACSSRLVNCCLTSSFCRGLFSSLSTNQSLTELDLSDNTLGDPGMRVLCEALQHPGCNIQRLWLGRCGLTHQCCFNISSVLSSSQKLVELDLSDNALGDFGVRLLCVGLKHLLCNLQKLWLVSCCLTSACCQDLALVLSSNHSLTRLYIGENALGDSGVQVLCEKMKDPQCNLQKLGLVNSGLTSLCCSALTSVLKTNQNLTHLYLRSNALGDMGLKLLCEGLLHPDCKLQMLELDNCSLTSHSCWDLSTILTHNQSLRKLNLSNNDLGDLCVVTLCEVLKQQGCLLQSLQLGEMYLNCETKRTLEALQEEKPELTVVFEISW

Key:
Flag-NLRP3 = Flag-NLRP3 (UniProt Q96P20); test: co-IP; exogenous: Flag-NLRP3 and HA-SIRT2 co-transfected into HEK-293T; lysate incubated overnight at 4°C with magnetic beads conjugated to anti-Flag antibody; washed five times with TBST; immunoblotting
[1] = target: NLRP3 (endogenous, primary rat chondrocytes) (rat (endogenous in primary rat chondrocytes)) (UniProt D4A523); test: co-IP; endogenous: RC or TC28a lysate incubated at 4°C for 12 h with magnetic beads and NLRP3 primary antibody or IgG; washed five times with TBST; Western blotting
[2] = target: NLRP3 (endogenous, TC28a cells) (human (endogenous in TC28a)) (UniProt Q96P20); test: as above

B1: HA-SIRT2 (protein, UniProt Q8IXJ6 1-389)
chain: MAEPDPSHPLETQAGKVQEAQDSDSDSEGGAAGGEADMDFLRNLFSQTLSLGSQKERLLDELTLEGVARYMQSERCRRVICLVGAGISTSAGIPDFRSPSTGLYDNLEKYHLPYPEAIFEISYFKKHPEPFFALAKELYPGQFKPTICHYFMRLLKDKGLLLRCYTQNIDTLERIAGLEQEDLVEAHGTFYTSHCVSASCRHEYPLSWMKEKIFSEVTPKCEDCQSLVKPDIVFFGESLPARFFSCMQSDFLKVDLLLVMGTSLQVQPFASLISKAPLSTPRLLINKEKAGQSDPFLGMIMGLGGGMDFDSKKAYRDVAWLGECDQGCLALAELLGWKKELEDLVRREHASIDAQSGAGVPNPSTSASPKKSPPPAKDEARTTEREKPQ
binding (Flag-NLRP3): binds

B2: SIRT2 (endogenous, primary rat chondrocytes) (protein, UniProt Q5RJQ4 1-350)
chain: MDFLRNLFTQTLGLGSQKERLLDELTLEGVTRYMQSERCRRVICLVGAGISTSAGIPDFRSPSTGLYANLEKYHLPYPEAIFEISYFKKHPEPFFALAKELYPGQFKPTICHYFIRLLKEKGLLLRCYTQNIDTLERVAGLEPQDLVEAHGTFYTSHCVNTSCGKEYTMSWMKEKIFSEATPKCEKCQNVVKPDIVFFGENLPPRFFSCMQSDFSKVDLLIIMGTSLQVQPFASLISKAPLATPRLLINKEKTGQTDPFLGMMMGLGGGMDFDSKKAYRDVAWLGDCDQGCLALADLLGWKELEDLVRREHANIDAQSGSQASNPSATVSPRKSPPPAKEAARTKEKEEH
binding [1]: binds

B3: SIRT2 (endogenous, TC28a cells) (protein, UniProt Q8IXJ6 1-389)
chain: MAEPDPSHPLETQAGKVQEAQDSDSDSEGGAAGGEADMDFLRNLFSQTLSLGSQKERLLDELTLEGVARYMQSERCRRVICLVGAGISTSAGIPDFRSPSTGLYDNLEKYHLPYPEAIFEISYFKKHPEPFFALAKELYPGQFKPTICHYFMRLLKDKGLLLRCYTQNIDTLERIAGLEQEDLVEAHGTFYTSHCVSASCRHEYPLSWMKEKIFSEVTPKCEDCQSLVKPDIVFFGESLPARFFSCMQSDFLKVDLLLVMGTSLQVQPFASLISKAPLSTPRLLINKEKAGQSDPFLGMIMGLGGGMDFDSKKAYRDVAWLGECDQGCLALAELLGWKKELEDLVRREHASIDAQSGAGVPNPSTSASPKKSPPPAKDEARTTEREKPQ
binding [2]: binds
